Some of the results follow.

By UniProt entry, the sequences of proteins in these tests, tags left out. Where a name states a change or a piece, a line headed by the entry shows the natural chain unless it says otherwise.
UniProt Q15642: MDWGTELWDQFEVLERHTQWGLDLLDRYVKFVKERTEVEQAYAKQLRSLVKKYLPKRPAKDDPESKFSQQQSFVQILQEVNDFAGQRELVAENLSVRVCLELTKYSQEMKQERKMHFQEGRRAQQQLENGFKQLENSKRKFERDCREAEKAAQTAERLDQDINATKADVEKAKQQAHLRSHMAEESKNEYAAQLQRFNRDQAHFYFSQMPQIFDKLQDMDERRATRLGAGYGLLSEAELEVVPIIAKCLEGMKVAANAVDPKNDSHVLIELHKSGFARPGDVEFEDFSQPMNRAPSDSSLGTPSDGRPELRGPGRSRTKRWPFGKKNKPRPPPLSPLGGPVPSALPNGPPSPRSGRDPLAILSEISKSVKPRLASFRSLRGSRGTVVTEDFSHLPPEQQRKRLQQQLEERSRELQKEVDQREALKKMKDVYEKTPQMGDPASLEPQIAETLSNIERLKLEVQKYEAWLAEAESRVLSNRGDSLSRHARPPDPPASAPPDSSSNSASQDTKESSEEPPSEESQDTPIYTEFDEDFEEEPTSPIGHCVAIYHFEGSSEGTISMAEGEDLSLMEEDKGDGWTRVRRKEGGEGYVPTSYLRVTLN
UniProt O43715: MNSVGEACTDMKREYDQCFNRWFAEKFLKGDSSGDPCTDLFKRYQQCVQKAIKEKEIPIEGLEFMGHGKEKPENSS
UniProt Q86TN4: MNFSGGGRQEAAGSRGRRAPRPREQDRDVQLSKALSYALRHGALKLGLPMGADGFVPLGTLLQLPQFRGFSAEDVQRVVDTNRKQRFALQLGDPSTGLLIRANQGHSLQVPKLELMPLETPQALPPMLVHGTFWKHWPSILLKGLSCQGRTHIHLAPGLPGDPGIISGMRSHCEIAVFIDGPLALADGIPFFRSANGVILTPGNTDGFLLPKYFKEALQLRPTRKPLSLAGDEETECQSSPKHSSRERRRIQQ
UniProt Q5BVD1: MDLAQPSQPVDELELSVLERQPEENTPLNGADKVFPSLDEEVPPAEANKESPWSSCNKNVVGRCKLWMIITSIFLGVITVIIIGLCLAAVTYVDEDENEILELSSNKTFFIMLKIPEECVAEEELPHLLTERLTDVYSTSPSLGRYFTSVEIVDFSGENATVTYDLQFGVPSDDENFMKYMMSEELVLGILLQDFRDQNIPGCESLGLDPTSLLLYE
UniProt Q13114: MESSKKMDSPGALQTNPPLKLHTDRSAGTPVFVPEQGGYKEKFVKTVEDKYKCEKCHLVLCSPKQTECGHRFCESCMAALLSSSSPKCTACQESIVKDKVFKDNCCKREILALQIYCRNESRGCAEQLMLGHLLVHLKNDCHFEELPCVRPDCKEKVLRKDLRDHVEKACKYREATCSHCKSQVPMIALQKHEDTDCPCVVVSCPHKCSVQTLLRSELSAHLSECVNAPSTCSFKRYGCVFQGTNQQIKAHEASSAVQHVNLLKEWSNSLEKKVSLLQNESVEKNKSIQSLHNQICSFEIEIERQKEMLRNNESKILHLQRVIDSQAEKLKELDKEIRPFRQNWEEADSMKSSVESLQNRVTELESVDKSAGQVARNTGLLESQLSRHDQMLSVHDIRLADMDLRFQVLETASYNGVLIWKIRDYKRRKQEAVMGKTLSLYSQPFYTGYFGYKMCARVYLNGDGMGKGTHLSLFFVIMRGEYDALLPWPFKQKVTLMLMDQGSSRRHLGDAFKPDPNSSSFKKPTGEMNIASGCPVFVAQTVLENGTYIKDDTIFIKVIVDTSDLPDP
UniProt Q6PJ69: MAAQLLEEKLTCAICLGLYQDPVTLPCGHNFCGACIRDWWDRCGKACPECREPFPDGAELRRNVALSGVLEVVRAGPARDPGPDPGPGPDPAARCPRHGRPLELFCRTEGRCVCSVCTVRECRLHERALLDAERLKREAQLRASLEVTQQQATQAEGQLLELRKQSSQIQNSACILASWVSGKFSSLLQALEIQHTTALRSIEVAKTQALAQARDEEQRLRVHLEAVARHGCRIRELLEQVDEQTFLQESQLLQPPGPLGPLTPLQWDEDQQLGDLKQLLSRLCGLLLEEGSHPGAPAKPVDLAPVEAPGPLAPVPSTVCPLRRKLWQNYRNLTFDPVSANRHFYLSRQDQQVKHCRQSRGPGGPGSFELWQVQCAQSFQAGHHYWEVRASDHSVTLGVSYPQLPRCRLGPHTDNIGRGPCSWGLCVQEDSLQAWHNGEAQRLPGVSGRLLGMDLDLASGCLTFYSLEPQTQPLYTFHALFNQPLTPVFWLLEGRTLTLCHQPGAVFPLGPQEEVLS
UniProt Q9UJT2: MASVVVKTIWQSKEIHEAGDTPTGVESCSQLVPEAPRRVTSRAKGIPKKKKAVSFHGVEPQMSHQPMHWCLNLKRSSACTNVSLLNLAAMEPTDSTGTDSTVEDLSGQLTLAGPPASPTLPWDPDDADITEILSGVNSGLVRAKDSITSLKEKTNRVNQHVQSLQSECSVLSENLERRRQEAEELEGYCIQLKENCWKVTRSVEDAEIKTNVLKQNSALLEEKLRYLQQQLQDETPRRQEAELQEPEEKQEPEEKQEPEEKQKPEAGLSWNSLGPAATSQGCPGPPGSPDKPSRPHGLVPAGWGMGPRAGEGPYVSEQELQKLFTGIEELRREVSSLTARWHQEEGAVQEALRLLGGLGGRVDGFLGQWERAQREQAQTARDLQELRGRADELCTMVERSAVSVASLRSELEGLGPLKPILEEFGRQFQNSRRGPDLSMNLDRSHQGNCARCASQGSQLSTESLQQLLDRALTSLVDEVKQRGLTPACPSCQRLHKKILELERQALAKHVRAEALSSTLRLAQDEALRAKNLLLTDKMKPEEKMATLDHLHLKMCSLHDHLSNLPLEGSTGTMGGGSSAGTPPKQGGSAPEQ
UniProt Q9H2D6: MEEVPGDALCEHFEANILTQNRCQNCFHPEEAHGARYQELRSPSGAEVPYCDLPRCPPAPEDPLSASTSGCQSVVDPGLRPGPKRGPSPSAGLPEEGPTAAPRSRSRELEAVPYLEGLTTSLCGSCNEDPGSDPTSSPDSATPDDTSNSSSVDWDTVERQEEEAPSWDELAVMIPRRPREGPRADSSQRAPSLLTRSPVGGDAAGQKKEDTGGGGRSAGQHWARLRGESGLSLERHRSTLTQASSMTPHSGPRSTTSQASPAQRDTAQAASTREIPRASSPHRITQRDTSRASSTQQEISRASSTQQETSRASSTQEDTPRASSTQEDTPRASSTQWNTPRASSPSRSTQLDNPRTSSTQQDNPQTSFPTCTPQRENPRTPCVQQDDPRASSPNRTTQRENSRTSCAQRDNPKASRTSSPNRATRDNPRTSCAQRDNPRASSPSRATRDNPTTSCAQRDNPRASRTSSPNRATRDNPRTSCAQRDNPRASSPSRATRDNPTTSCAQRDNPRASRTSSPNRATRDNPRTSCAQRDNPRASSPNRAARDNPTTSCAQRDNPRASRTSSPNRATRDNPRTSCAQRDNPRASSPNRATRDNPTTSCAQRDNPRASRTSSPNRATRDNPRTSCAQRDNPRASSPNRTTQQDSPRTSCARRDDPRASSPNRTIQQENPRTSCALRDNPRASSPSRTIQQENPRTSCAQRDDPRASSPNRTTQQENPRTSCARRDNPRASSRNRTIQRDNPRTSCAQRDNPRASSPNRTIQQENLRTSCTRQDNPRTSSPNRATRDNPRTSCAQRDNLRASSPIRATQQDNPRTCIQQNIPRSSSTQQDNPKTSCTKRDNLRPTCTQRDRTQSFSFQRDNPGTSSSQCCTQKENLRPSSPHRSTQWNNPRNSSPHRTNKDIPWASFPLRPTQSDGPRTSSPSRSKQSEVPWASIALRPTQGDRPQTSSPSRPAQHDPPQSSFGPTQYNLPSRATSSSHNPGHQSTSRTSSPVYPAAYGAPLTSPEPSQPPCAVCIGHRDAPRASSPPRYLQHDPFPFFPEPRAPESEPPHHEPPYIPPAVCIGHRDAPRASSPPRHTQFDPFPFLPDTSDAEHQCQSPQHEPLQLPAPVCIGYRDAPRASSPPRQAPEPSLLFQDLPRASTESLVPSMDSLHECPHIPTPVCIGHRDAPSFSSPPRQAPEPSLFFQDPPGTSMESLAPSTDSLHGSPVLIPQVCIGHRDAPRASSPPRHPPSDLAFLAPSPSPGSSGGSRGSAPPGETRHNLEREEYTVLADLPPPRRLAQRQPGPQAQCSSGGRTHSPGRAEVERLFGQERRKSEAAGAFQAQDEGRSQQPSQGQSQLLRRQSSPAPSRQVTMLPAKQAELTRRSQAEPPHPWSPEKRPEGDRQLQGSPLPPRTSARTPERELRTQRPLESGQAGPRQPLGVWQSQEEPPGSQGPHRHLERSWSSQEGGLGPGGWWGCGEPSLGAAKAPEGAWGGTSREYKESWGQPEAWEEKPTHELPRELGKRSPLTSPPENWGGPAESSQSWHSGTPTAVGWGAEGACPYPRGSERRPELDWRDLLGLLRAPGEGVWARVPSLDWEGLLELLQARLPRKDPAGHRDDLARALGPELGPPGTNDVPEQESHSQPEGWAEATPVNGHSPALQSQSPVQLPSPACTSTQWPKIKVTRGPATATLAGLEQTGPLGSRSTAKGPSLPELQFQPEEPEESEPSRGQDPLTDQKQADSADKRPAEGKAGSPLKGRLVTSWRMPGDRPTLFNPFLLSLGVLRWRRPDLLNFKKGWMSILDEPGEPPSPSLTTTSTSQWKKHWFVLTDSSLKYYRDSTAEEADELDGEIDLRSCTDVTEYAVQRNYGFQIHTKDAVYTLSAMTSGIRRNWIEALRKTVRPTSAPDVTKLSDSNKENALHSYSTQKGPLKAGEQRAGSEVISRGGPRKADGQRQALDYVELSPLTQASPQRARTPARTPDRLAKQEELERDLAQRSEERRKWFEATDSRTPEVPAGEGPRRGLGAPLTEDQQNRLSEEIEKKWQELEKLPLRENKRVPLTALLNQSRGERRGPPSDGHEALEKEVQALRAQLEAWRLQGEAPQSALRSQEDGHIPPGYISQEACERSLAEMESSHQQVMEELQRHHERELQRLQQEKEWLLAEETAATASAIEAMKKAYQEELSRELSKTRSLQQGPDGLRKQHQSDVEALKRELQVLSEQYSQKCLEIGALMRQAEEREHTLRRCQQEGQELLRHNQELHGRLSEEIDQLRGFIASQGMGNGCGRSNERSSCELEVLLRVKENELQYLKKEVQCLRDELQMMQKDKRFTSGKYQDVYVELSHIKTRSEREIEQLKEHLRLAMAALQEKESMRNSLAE
UniProt Q7Z4L5: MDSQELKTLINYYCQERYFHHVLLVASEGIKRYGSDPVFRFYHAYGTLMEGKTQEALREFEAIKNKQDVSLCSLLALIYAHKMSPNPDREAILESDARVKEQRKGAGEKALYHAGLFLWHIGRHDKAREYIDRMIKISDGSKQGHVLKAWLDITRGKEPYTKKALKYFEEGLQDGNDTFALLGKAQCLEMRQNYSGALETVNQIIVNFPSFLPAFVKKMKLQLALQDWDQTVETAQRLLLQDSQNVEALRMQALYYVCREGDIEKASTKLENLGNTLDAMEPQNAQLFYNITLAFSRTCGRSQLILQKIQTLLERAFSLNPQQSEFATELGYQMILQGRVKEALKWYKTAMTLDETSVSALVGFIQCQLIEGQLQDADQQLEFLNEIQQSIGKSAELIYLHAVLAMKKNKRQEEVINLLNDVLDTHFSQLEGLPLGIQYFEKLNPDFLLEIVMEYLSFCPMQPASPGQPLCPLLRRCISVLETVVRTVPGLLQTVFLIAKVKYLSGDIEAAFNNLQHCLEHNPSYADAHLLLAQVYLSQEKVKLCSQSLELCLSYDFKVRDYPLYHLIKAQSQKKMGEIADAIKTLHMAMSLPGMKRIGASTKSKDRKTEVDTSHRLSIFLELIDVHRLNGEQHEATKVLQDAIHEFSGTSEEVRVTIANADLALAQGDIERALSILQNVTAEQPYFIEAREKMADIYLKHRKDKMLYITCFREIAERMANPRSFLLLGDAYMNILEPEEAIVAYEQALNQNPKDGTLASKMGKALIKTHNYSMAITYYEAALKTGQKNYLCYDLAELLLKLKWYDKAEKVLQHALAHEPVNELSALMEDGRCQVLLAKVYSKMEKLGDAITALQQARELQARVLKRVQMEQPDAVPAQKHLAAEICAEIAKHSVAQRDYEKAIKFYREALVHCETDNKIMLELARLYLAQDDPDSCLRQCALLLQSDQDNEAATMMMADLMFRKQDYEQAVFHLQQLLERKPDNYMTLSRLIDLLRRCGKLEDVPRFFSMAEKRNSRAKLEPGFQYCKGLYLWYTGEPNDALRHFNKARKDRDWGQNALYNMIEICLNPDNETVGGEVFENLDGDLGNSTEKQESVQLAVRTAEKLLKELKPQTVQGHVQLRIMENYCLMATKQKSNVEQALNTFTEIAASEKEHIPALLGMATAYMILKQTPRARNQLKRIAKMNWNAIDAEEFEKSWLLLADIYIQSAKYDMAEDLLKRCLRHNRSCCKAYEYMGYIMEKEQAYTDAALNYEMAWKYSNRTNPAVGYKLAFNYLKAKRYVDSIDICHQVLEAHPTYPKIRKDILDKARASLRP

Compound in the first assay: Cc1ccc(-n2nc(C(C)(C)C)cc2NC(=O)Nc2ccc(OCCN3CCOCC3)c3ccccc23)cc1 [doramapimod]
Put plainly: log2 fold change, soluble protein after heating vs DMSO (PISA); higher = thermal stabilisation; K562 lysate, 10 uM; active = over 0.2 and 3.5 SD of the protein, either way, in both replicates (recomputed). The gist of the method:
(§1)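 Log-two fold change in thermal stability relative to solvent controls is reported from duplicates. For each sample, crude K562 extract from dounce-homogenised pellets in PBS pH 7.4 with 1 mM MgCl2, at 1 mg/mL protein, was treated with 10 μM compound for 30 min. Aliquots heated for 3 min across 48°C-58°C were pooled, brought to 0.5% NP-40 at 4°C and cleared at 21,000xg for 90 min. The supernatant was quantified by TMTpro 16plex LC-MS/MS with channel sums equalised.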
With TRMT2B (UniProt Q96GJ1), the log2 fold change is inactive: 0.052. TSC1 (UniProt Q92574): the log2 fold change is inactive: 0.003. With TTLL12 (UniProt V9GY16), the log2 fold change was inactive: -0.029. On the same count and under the same terms, the result for TSPYL2 (UniProt Q9H2G4) reads inactive: 0.088. On the same count and under the same terms, the result for TRIM58 (UniProt Q8NG06) reads inactive: 0.011; that for TSPYL1 (UniProt Q9H0U9), inactive: 0.054; that for TRRAP (UniProt Q9Y4A5), inactive: 0.036.

Regarding TRPM4 (UniProt Q8TD43), the log2 fold change was inactive: -0.111. Consider TRPS1 isoform 2 (UniProt Q9UHF7), for which the log2 fold change was inactive: 0.055. The same measure, in the same setting: the result for TRNT1 (UniProt Q96Q11) reads inactive: 0.032. The same measure, in the same setting: the result for TRIP10 (UniProt Q15642) reads inactive: 0.054; that for TRIAP1 (UniProt O43715), inactive: -0.128.

Regarding TSC22D2 (UniProt O75157), the log2 fold change is inactive: 0.031. Same read-out and setting: with TRPT1 isoform 4 (UniProt Q86TN4) the figure was inactive: 0.047; with TRIP10 isoform 2 (UniProt Q15642), inactive: -0.054. Regarding TTMP isoform 3 (UniProt Q5BVD1), the log2 fold change was inactive: 0.137. As to TRAF3 (UniProt Q13114), the log2 fold change was inactive: -0.058.

On to TRIM65 (UniProt Q6PJ69), for which the log2 fold change is inactive: -0.02.

Take TRPM7 (UniProt Q96QT4): the log2 fold change is inactive: -0.005. For the target TRAF7 (UniProt Q6Q0C0), the log2 fold change was inactive: 0.122.

TSKS (UniProt Q9UJT2): the log2 fold change was inactive: 0.019. On the same count and under the same terms, the result for TRIOBP (UniProt Q9H2D6) reads inactive: 0.047; that for TRIM27 (UniProt P14373), inactive: 0.01; that for TRIO (UniProt O75962), inactive: 0.157.

Compound in a further assay: Cc1ccc(NC(=O)c2ccc(CN3CC[C@H](N(C)C)C3)c(C(F)(F)F)c2)cc1Nc1nccc(-c2cncnc2)n1 [bafetinib]
Described as above. Summed up: as §1
In the case of TRMT2B (UniProt Q96GJ1), the log2 fold change was inactive: -0.12. Take TSC1 (UniProt Q92574): the log2 fold change was inactive: -0.062. Still for that read-out and setting: the result for TTLL12 (UniProt V9GY16) reads inactive: -0.187; that for TRIM58 (UniProt Q8NG06), inactive: -0.021; that for TSPYL1 (UniProt Q9H0U9), inactive: 0.133.

As to TRRAP (UniProt Q9Y4A5), the log2 fold change was inactive: -0.056. Same read-out and setting: with TRPM4 (UniProt Q8TD43) the figure was inactive: -0.02; with TRNT1 (UniProt Q96Q11), inactive: 0.016. The same measure, in the same setting: the result for TRIP10 (UniProt Q15642) reads inactive: 0.023; that for TSC22D2 (UniProt O75157), inactive: -0.122; that for TRPT1 isoform 4 (UniProt Q86TN4), inactive: 0.139.

In the case of TRIP10 isoform 2 (UniProt Q15642), the log2 fold change is inactive: 0.04. On to TTMP isoform 3 (UniProt Q5BVD1), for which the log2 fold change was inactive: -0.197.

With TRAF3 (UniProt Q13114), the log2 fold change is inactive: -0.089. On the same count and under the same terms, the result for TRIM65 (UniProt Q6PJ69) reads inactive: 0.034. TSTD2 (UniProt Q5T7W7): the log2 fold change is inactive: -0.215. The same measure, in the same setting: with TTC21B (UniProt Q7Z4L5) the figure was inactive: -0.034.

TRIOBP (UniProt Q9H2D6): the log2 fold change was inactive: -0.036.

As to TRIM27 (UniProt P14373), the log2 fold change was inactive: 0.001. On the same count and under the same terms, the result for TRIO (UniProt O75962) reads inactive: -0.096.

The values are drawn from the supplement of paper PMC10849652.
